Results taken from US20080131423A1 (US Dept. of Health and Human Services, published 2008).
Results are given in words; binding and its absence hold for the method and conditions named. Some results given as binding are weak or reduced against the parent protein; the word gives no strength.

Key:
[1] = biological target: T1, human TREM-like transcript-1 (TLT-1) (human, UniProt Q86YW5 16-311); assay: flow cytometry, purified scFv on TLT-1 transfected cells
T1 construct: whole, on cells; bands of 35 and 25 kDa; also called hTLT-1; TLT-1 on (HEK)293T transfected cells
T1 sequence (looked up): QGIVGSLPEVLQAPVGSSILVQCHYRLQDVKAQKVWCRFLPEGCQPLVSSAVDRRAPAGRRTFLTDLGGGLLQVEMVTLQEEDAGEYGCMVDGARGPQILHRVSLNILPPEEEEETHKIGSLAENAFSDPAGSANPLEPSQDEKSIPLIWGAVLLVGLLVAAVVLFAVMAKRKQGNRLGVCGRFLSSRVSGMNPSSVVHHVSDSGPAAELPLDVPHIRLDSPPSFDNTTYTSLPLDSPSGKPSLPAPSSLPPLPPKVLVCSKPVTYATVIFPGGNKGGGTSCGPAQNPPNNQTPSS
Experimental: For flow cytometric analysis with TLT-1-transfected cells, phage-containing supernatants were prepared from individual colonies as previously described (14). (HEK)293T-TLT-1 transfected cells (2×10⁵ cells) were washed with PBS/1% BSA and incubated with phages (2×10¹⁰ TU) or purified scFv (1 μg/ml). After 1 hr of incubation at 4° C., cells were washed twice with PBS/1% BSA. Phage binding was detected by incubation with mouse anti-M13 monoclonal antibody (Amersham Bioscience, Piscataway, N.J.), followed by incubation with phycoerithrin (PE)-conjugated anti-mouse antibody (Jackson Immunoresearch, West Grove, Pa.). To analyze scFv binding to human platelets, platelets were incubated with 1 μg of purified scFv for 1 hour at 4° C. and washed three times with PBS containing 0.5% sodium azide and 0.5% BSA. ScFv binding was detected using a FITC-conjugated anti-c-myc antibody (Sigma, St Louis, Mo.). TLT-1 expression was detected with a commercial anti-human TLT-1 pAb (R&D Systems, MN) as previously described (10).

[2] = biological target: T1, human TREM-like transcript-1 (TLT-1); assay: flow cytometry, purified scFv on resting human platelets (low surface TLT-1)
[3] = biological target: T1, human TREM-like transcript-1 (TLT-1); assay: flow cytometry, purified scFv on thrombin-activated human platelets (FIG. 4A)

Measured: binding

B1: scFv B8 (scFv)
scFv: MAEVQLLESGGGLVQPGGSLRLSCAASGFTFSSYAMSWVRQAPGKGLEWVSNITASGYATAYADSVKGRFTISRDNSKNTLYLQMNSLRAEDTAVYYCAKTTATFDYWGQGTLVTVSSGGGGSGGGGSGGGGSTDIQMTQSPSSLSASVGDRVTITCRASQSISSYLNWYQQKPGKAPKLLIYDASNLQSGVPSRFSGSGSGTDFTLTISSLQPEDFATYYCQQDTASPSTFGQGTKVEIKRAAAHHHHHHGAAEQKLISEEDLNGAA
notes: Human scFv from the Tomlinson I phage library; Soluble form purified on Protein L; also called GenBank DQ375452
binds: all assays above
